Data taken from publication doi:10.1101/2025.09.09.675193 (bioRxiv, 2025).

Biological target: T1, DDIAS-pT775 peptide, biotinylated (human)
T1 sequence (peptide, biotin on the N terminus; phosphothreonine at Thr775 ([pThr])): SGSGSQDFVPCSQSTPIS
Assay: affinity purification with mass spectrometry

binding: binds
Substance: PLK1, endogenous in 293FT cells (from UniProt P53350 1-603) (enzyme)

Results are given in words; binding and its absence hold for the method and conditions named. Binding seen in cells or lysates may run through a third protein. A yes stands for co-enrichment or nearness to the bait. Other partners may have been found.
